These are yes or no findings as the source states them, for the method shown. A result given as binding can be weak or reduced; the word gives no strength.
Target: T1, recombinant ɸ6 protein P1 (cystovirus ɸ6) (UniProt P11126)
T1 sequence: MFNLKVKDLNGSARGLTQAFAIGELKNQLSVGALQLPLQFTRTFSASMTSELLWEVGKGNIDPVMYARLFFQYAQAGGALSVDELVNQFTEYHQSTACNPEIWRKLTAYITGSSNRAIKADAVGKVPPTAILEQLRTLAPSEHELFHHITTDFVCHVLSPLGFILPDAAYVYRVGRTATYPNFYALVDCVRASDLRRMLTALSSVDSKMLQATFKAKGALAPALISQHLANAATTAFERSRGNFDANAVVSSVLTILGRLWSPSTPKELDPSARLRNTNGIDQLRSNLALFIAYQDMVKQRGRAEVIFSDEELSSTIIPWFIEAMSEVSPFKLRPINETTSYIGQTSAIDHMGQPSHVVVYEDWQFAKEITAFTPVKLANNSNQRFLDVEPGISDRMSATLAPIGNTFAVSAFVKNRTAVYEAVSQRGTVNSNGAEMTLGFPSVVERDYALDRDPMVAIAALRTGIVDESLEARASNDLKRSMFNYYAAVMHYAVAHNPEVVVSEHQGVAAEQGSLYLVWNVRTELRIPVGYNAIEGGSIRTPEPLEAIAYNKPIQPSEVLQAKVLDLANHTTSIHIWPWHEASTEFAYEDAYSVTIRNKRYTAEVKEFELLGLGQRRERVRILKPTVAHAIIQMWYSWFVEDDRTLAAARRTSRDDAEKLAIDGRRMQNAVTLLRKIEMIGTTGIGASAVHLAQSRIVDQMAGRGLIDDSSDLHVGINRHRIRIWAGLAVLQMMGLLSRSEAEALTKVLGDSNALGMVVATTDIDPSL
Assay: co-sedimentation

With “recombinant ɸ6 protein P7, full length (cystovirus ɸ6)” the binding was “binds”.

From doi:10.1101/2025.07.23.666269 (bioRxiv, 2025)
